Values of other authors, collected in patent US20210403866A1, “ENHANCED DENDRITIC CELL IMMUNE ACTIVATION BY COMBINED INHIBITION OF NR2F6 WITH CANNIBIDIOL” (Regen Biopharma, Inc., priority 2019, published 2021).
Like-named read-outs stand apart in the source and are kept apart here. For at least one compound, name, drawing or mass did not settle the structure.

Legend:
[1] = system: murine WT1-transfected C1498 (mWT1-C1498); details: increasing doses; cited from earlier work
WT1 mRNA = details: mWT1-C1498, cited from earlier work; for increment of WT1 mRNA level compared to untreated sample: 48 h

For `Nc1ncn([C@H]2C[C@H](O)[C@@H](CO)O2)c(=O)n1` [DAC, decitabine], the “number of viable cells” value [1] is listed as “decreased the number of viable cells in a dose- or time-dependent manner”, the “increment of WT1 mRNA level compared to untreated sample” value (WT1 mRNA; 0.1 μM) is listed as 1.4 fold and the “increment of WT1 mRNA level compared to untreated sample” value (WT1 mRNA; 1 μM) is listed as 14.6 fold. For the same compound, the “increment of WT1 mRNA level compared to untreated sample” value (WT1 mRNA; 10 μM) was 15.5 fold and the “WT1 expression at 72 h” value (WT1 mRNA; 1 and 10 μM, 72 h) was “Further increment of WT1 expression”.
